Publication PMC8194828
Results are given in words; binding and its absence hold for the method and conditions named. In cells and extracts the contact can be indirect. Some entries that bind do so weakly or less than the wild type. For some assays here: Tags and fused reporters may be left off the sequences shown.

By UniProt entry, the sequences of proteins in these tests, tags left out.
UniProt Q13541: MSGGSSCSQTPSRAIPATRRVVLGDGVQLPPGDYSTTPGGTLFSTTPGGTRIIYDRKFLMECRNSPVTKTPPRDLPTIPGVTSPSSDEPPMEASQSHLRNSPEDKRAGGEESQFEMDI

Experiments:
[1] = biological target: T1, PIP4K2A overexpressed in HEK293T cells (human) (UniProt P48426); experiment: co-IP; lysate of HEK293T cells overexpressing PIP4K2A (10 mM Tris pH 7.5, 150 mM NaCl, 10% glycerol); IP with anti-PIP4K2A (SC-100406) on Protein G magnetic beads, 4°C, 16 h; mouse IgG as control; blot with anti-eIF4EBP1
T1 sequence: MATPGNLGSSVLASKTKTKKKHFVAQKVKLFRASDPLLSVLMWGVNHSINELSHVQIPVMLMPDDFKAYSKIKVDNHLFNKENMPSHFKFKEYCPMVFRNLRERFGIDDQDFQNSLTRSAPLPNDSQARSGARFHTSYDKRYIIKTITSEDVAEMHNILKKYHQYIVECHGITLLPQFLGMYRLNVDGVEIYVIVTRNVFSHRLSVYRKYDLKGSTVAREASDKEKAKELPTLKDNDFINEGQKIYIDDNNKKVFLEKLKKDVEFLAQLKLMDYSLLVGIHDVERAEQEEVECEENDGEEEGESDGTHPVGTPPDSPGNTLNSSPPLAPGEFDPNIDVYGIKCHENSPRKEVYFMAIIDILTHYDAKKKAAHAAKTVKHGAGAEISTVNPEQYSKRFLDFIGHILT

GST eIF4EBP1 = GST eIF4EBP1 (UniProt Q13541); experiment: pull-down; His-PIP4K2A and GST fusion co-expressed in E. coli BL21-codon+; GST fusion held on glutathione resin, washed several times; His-PIP4K2A detected by Western blot (anti-His or anti-PIP4K2A)

For “eIF4EBP1 (in HEK293T lysate) (from UniProt Q13541 1-118)”, the binding [1] was “binds”.

B1: His-tagged PIP4K2A (phosphatidylinositol 5-phosphate 4-kinase) (enzyme, UniProt P48426 1-406)
chain: MATPGNLGSSVLASKTKTKKKHFVAQKVKLFRASDPLLSVLMWGVNHSINELSHVQIPVMLMPDDFKAYSKIKVDNHLFNKENMPSHFKFKEYCPMVFRNLRERFGIDDQDFQNSLTRSAPLPNDSQARSGARFHTSYDKRYIIKTITSEDVAEMHNILKKYHQYIVECHGITLLPQFLGMYRLNVDGVEIYVIVTRNVFSHRLSVYRKYDLKGSTVAREASDKEKAKELPTLKDNDFINEGQKIYIDDNNKKVFLEKLKKDVEFLAQLKLMDYSLLVGIHDVERAEQEEVECEENDGEEEGESDGTHPVGTPPDSPGNTLNSSPPLAPGEFDPNIDVYGIKCHENSPRKEVYFMAIIDILTHYDAKKKAAHAAKTVKHGAGAEISTVNPEQYSKRFLDFIGHILT
With B1 the binding (GST eIF4EBP1) was “binds”.
